Laboratory results taken from doi:10.1101/2021.08.11.456023.
These are yes or no findings as the source states them, for the method shown. In cells and extracts the contact can be indirect. Some entries that bind do so weakly or less than the wild type. Values belong to the molecule of their own block, whether it stands above or below them.

The chains behind the UniProt entries cited, without tags or fusion partners.
UniProt P42227: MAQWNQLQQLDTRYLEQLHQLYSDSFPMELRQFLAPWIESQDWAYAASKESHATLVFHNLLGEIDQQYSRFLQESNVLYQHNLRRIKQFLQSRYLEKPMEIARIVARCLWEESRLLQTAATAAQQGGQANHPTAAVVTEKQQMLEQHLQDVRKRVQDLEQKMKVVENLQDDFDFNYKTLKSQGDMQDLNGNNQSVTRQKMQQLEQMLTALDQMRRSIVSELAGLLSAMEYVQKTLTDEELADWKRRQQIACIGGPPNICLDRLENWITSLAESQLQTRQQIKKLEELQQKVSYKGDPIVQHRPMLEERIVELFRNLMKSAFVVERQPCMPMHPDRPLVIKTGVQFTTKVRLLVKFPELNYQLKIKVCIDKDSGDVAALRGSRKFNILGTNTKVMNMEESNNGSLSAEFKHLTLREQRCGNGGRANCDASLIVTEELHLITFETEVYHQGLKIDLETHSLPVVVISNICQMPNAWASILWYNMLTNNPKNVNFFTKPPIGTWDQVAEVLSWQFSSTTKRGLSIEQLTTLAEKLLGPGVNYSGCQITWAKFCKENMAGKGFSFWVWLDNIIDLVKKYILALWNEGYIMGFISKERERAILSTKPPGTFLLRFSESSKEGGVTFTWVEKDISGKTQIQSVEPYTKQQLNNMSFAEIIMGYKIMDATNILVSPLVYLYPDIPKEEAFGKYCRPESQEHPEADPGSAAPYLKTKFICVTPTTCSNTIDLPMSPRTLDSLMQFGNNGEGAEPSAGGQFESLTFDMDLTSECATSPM

Key:
Experiment in all cases: co-IP
[1] = biological target: T1, Kindlin-2 (endogenous) (mouse (endogenous in primary articular chondrocytes)) (UniProt Q8CIB5)
T1 sequence: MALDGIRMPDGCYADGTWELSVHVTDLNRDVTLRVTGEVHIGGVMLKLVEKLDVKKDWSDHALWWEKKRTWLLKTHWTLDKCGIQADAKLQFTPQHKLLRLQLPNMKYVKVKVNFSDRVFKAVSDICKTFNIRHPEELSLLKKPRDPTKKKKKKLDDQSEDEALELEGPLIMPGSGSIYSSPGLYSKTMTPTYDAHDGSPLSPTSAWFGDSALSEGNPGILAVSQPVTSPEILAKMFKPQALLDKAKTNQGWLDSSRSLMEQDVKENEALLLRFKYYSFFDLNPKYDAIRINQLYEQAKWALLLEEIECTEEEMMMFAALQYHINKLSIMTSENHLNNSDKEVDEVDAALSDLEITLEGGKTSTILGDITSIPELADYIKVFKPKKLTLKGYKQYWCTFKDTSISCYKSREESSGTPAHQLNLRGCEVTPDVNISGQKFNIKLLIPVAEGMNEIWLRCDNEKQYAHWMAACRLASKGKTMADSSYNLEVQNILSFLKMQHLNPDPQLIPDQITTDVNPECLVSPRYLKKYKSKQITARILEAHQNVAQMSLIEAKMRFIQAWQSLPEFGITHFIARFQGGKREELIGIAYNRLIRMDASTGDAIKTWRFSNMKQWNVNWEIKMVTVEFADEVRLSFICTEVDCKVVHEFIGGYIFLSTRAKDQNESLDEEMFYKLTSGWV

[2] = biological target: T2, Kindlin-2 (full-length, overexpressed) (UniProt Q8CIB5)
T2 sequence: T1 sequence

[3] = biological target: Flag-Stat3 (UniProt P42227)

- binding [1]: binds
Molecule: Stat3 (endogenous) (from UniProt P42227 1-770)

- binding [2]: binds
Molecule: Flag-Stat3 (from UniProt P42227 1-770)

- binding [3]: binds
B1: Kindlin-2 (full-length, overexpressed) (protein, UniProt Q8CIB5 1-680)
chain: T1 sequence
